Laboratory results: publication PMC6981271
Results are given in words; binding and its absence hold for the method and conditions named. In cells and extracts the contact can be indirect. These calls come from enrichment with a bait or labelling near it, and not all partners need be listed.

Amino acid sequences for entries named in this document (tags omitted).
UniProt P00442: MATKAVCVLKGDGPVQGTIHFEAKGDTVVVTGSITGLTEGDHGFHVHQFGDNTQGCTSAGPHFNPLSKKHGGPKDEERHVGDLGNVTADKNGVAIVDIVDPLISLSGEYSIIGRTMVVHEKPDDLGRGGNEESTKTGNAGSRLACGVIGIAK
UniProt Q76LV1: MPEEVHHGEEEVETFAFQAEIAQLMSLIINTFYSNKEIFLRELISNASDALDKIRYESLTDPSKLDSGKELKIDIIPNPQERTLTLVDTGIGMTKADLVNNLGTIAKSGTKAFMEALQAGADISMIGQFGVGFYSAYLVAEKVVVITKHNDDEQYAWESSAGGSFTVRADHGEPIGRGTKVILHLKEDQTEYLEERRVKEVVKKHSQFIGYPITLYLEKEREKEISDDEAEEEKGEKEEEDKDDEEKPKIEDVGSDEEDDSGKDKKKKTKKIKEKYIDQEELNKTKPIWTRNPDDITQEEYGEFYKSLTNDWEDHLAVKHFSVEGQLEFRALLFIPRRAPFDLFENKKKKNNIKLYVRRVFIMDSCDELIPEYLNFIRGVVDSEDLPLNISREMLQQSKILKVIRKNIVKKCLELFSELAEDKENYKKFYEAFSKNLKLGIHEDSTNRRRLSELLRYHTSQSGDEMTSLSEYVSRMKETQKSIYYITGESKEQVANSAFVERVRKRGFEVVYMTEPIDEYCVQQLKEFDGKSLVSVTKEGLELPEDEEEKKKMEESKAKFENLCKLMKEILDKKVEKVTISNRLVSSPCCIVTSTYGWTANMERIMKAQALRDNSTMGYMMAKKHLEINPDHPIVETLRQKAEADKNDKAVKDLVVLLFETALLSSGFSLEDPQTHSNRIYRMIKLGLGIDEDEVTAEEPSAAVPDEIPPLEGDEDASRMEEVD

T1: myristoylated recombinant bGCAP2, mock-phosphorylation control (unphosphorylated Ca2+-free GCAP2) (bovine (printed only as 'bGCAP2')) (UniProt P51177)
T1 sequence (chain, myristoylated): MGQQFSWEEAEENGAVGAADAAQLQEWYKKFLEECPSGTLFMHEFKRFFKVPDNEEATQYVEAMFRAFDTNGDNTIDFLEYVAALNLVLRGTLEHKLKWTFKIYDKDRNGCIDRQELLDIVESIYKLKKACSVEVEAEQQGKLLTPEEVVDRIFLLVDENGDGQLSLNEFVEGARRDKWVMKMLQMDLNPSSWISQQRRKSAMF

B1: HspB8 (protein, UniProt Q5EAC9 1-196)
chain: MADGQMPFPCHYTSRRRRDPFRDSPLSSRLLDDGFGMDPFPDDLTASWPDWALPRLSSAWPGTLRSGMVPRGPTAMTRFGVPAEGRSPPPFPGEPWKVCVNVHSFKPEELMVKTKDGYVEVSGKHEEKQQEGGIVSKNFTKKIQLPAEVDPVTVFASLSPEGLLIIEAPQVPPYSPFGESSFNNELPQDGQEVTCT
B2: peroxiredoxin-6 (enzyme, UniProt O77834 1-224)
chain: MPGGLLLGDEAPNFEANTTIGRIRFHDYLGDSWGILFSHPRDFTPVCTTELGRAAKLAPEFAKRNVKMIALSIDSVEDHLAWSKDINAYNGEEPTEKLPFPIIDDKNRDLAIQLGMLDPAEKDEKGMPVTARVVFIFGPDKKLKLSILYPATTGRNFDEILRVIISLQLTAEKRVATPVDWKNGDSVMVLPTIPEEEAKKLFPKGVFTKELPSGKKYLRYTPQP

Biological target: T1, myristoylated recombinant bGCAP2, mock-phosphorylation control (unphosphorylated Ca2+-free GCAP2) (bovine (printed only as 'bGCAP2'))
Experiment: affinity purification with mass spectrometry; GCAP2 or GCAP2-P covalently linked to Epoxi-magnetic beads, incubated 1 h at room temperature with bovine retinal homogenate in 10 mM HEPES, 135 mM NaCl, 5 mM KCl, 1% Triton X-100, 4 mM EGTA, 2 mM EDTA, pH 7.4; eluted with 0.2 M glycine pH 2.5; LC-MS/MS, label-free (NSAF) comparison of GCAP2-P with GCAP2, three replicates; only the target purified

Row | Molecule | binding
1 | superoxide dismutase 1 (from UniProt P00442 1-152) (enzyme) | binds
2 | HSP90β (from UniProt Q76LV1 1-724) | binds
3 | HSP90α (from UniProt Q76LV2 1-733) | binds
4 | B1 | binds
5 | B2 | binds
